# Experimental data: the supplement of paper PMC12823440, “Inhibitors supercharge kinase turnover through native proteolytic circuits” (Nature, 2025)
# Chains of the proteins cited; added tags and fusions are not shown. Lines headed by an entry give the natural chain unless they say otherwise; changes in a name come on top.
# UniProt Q15208: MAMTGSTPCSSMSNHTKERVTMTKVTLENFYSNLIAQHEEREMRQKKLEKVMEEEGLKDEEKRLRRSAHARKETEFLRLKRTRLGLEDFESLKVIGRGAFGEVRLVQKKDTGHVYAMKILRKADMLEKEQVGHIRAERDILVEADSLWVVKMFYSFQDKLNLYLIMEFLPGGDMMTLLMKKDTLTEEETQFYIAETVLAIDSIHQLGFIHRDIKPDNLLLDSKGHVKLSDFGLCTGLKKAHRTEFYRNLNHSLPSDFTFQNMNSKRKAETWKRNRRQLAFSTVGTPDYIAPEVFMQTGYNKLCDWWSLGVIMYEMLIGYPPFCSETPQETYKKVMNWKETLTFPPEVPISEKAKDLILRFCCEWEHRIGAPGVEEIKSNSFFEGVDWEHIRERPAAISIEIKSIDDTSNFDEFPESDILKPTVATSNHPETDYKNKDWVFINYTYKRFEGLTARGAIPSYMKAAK
# UniProt P42680: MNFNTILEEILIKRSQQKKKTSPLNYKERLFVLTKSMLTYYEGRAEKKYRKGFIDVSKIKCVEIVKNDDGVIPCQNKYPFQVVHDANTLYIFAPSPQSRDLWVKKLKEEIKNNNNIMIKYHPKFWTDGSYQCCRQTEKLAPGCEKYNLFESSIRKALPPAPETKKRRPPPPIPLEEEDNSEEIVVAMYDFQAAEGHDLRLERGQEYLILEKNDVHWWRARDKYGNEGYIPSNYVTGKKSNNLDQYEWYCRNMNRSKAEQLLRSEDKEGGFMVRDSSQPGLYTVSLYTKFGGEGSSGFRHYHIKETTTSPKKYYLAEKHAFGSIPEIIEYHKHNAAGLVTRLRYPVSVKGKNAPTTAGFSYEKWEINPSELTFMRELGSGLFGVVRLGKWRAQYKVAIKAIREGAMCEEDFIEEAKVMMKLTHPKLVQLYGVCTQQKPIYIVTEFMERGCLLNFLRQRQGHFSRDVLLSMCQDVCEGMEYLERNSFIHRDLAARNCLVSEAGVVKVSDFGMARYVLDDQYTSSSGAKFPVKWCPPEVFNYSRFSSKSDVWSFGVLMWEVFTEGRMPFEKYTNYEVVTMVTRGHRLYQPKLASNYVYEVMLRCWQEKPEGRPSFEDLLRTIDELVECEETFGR
# UniProt P29597: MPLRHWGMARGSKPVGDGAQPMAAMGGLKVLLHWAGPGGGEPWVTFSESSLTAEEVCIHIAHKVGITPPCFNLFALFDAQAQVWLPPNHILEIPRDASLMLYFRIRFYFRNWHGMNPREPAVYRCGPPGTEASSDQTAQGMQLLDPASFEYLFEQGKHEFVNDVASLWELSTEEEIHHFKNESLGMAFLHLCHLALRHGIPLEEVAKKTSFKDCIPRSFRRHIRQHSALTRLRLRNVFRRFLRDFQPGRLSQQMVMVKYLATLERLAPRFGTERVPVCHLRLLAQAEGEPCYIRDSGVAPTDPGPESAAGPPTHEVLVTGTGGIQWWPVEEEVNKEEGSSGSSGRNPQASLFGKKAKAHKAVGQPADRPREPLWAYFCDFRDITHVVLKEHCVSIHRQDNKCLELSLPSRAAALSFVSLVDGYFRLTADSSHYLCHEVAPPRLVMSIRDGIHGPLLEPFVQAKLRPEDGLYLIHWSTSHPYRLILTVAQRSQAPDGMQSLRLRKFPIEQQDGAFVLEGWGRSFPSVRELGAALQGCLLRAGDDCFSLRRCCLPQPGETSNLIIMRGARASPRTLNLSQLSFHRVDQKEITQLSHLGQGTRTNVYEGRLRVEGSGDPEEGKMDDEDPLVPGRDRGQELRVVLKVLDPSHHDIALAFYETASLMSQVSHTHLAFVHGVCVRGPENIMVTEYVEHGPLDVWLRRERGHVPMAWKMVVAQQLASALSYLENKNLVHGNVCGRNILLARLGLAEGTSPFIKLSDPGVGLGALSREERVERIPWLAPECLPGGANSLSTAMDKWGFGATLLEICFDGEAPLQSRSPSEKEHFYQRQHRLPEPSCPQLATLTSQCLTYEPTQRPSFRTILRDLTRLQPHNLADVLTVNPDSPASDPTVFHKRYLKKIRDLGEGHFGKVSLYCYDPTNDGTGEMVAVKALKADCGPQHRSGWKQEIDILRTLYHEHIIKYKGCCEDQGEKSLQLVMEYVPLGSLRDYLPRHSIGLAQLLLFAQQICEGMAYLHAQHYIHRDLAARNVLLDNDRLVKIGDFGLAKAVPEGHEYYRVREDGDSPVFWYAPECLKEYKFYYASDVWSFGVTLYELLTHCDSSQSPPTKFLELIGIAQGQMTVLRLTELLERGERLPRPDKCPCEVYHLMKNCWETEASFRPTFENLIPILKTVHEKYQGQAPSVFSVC
# UniProt Q6PHR2: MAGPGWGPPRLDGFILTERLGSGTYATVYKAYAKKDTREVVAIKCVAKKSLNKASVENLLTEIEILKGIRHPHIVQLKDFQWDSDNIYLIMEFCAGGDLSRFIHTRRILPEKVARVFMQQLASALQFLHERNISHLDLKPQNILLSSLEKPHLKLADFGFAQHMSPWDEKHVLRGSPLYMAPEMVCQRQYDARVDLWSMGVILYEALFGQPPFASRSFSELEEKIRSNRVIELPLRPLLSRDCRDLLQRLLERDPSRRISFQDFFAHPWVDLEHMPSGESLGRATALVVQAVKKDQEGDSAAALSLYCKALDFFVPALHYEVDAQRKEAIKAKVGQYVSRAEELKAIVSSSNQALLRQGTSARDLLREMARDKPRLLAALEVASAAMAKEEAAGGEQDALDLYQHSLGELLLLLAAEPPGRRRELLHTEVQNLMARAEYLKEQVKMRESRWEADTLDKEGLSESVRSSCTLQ
# UniProt P07947, whole entry, looked up: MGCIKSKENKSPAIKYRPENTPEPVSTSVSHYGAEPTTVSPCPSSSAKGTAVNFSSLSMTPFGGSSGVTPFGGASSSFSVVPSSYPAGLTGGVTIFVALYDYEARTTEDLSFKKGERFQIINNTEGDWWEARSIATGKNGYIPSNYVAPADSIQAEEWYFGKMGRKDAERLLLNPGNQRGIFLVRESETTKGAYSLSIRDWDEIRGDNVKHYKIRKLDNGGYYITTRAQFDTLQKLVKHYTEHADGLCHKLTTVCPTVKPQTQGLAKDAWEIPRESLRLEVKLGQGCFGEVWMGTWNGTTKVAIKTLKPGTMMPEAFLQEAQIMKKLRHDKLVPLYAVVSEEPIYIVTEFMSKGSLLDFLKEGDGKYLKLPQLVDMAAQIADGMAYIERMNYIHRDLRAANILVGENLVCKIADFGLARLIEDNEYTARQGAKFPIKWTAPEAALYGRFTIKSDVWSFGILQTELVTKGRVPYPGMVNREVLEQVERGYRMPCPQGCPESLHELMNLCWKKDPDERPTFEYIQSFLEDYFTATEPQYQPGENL
# UniProt P43403: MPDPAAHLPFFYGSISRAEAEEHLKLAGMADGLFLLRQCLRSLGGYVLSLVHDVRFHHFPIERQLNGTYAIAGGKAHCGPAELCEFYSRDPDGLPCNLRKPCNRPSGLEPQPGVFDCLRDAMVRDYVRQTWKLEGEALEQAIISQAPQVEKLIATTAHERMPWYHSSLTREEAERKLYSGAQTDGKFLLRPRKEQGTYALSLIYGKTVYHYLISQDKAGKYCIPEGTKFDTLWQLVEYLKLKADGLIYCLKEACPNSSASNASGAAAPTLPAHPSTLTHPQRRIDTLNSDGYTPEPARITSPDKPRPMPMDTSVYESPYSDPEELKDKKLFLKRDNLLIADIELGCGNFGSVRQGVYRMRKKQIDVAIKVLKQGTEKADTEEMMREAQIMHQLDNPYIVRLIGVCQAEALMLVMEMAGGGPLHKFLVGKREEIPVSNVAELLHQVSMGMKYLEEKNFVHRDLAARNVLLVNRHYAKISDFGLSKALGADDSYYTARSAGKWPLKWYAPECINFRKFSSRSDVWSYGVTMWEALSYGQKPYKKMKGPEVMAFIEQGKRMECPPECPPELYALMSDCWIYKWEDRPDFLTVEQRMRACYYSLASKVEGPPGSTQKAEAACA
# UniProt P00519, whole entry: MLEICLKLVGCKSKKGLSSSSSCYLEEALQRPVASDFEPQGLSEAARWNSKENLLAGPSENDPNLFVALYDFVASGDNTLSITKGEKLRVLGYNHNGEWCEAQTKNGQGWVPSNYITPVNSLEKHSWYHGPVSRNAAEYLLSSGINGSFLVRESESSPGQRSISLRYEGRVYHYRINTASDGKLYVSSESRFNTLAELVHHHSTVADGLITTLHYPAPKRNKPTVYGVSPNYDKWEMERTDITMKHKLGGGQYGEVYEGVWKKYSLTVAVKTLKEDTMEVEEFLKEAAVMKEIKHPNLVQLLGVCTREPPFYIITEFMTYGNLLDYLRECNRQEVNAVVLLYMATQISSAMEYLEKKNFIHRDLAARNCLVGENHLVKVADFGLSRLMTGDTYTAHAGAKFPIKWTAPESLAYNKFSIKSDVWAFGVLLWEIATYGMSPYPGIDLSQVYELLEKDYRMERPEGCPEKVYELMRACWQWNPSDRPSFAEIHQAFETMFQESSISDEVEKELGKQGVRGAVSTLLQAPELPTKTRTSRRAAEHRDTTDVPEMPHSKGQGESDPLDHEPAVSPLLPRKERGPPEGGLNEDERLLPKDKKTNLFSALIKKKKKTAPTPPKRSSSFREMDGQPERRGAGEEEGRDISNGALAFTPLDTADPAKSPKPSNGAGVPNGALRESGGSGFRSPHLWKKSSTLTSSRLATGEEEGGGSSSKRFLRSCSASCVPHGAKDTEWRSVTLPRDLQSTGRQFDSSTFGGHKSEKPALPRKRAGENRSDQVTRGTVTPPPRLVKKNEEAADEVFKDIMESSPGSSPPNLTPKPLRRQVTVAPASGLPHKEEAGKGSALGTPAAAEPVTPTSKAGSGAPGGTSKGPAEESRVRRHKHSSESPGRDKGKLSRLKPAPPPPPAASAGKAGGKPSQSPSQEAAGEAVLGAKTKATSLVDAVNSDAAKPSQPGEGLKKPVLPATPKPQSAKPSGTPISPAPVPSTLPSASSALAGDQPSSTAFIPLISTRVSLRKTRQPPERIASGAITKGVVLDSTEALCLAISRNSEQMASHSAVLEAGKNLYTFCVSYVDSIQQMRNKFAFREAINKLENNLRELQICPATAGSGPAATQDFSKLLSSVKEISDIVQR
# UniProt P31749: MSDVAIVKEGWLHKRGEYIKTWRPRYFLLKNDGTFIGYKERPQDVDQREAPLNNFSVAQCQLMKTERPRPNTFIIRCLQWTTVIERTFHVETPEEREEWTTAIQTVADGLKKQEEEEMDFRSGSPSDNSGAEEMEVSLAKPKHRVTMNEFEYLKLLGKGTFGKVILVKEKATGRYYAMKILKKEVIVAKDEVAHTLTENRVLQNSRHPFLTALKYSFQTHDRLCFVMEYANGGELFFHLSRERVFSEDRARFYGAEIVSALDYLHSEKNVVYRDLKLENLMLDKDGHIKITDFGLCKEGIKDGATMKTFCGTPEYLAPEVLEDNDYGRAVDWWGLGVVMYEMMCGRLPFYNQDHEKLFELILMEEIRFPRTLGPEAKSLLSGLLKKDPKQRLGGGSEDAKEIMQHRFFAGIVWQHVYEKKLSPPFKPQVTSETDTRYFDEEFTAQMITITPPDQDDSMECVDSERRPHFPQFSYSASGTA
# Counter-ions that a name gives are not always drawn. This is one part of the list. The calls rarely recur for the same compound in another form.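 Kinases were expressed as nanoluciferase fusions in K562 cells and luminescence was read every 4 h between 2 and 18 h as percent of control, DMSO set to 100% and a positive control to 0%. A time point counts as decreased when the signal drops significantly (2 sigma). The hit call is the authors' own, does not follow from the count of time points alone, and its rule is not shown.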
# Tests used:
# Details in all cases: K562; 2-18 h
# STK38 = STK38 (UniProt Q15208); assay: kinase-Nluc reporter destabilization hit call (1 = scored as downregulated) (binary); higher = compound decreases kinase abundance
# SYK = SYK (UniProt P43405); assay: as above
# TEC = TEC (UniProt P42680); assay: as above
# TYK2 = TYK2 (UniProt P29597); assay: as above
# ULK3 = ULK3 (UniProt Q6PHR2); assay: as above
# YES1 = YES1 (UniProt P07947); assay: as above
# ZAK = ZAK (UniProt Q9NYL2); assay: as above
# ZAP70 = ZAP70 (UniProt P43403); assay: as above
# ABL1 = ABL1 (UniProt P00519); assay: number of time points (of 5) at which kinase-Nluc abundance scored as decreased, DMSO-normalised (count); higher = more persistent destabilization
# AKT1 = AKT1 (UniProt P31749); assay: as above
SMILES,kinase-Nluc reporter destabilization hit call (STK38),kinase-Nluc reporter destabilization hit call (SYK),kinase-Nluc reporter destabilization hit call (TEC),kinase-Nluc reporter destabilization hit call (TYK2),kinase-Nluc reporter destabilization hit call (ULK3),kinase-Nluc reporter destabilization hit call (YES1),kinase-Nluc reporter destabilization hit call (ZAK),kinase-Nluc reporter destabilization hit call (ZAP70),number of time points (ABL1),number of time points (AKT1)
COc1ccc2c(c1)/C(=C/c1cnc[nH]1)C(=O)N2 (2.5 µM),inactive: 0,inactive: 0,inactive: 0,inactive: 0,inactive: 0,inactive: 0,inactive: 0,inactive: 0,0,0
O=c1[nH]c2ccccc2n1C1CCN(CCCC(c2ccc(F)cc2)c2ccc(F)cc2)CC1 [Pimozide] (2.5 µM),inactive: 0,inactive: 0,inactive: 0,inactive: 0,inactive: 0,inactive: 0,inactive: 0,inactive: 0,0,0
C=CC(=O)Nc1ccc2[nH]c(=O)n(C3CCN(Cc4ccc(-c5nc6cc[nH]c(=O)c6cc5-c5ccccc5)cc4)CC3)c2c1 [Borussertib] (10 µM),inactive: 0,inactive: 0,inactive: 0,inactive: 0,inactive: 0,inactive: 0,inactive: 0,inactive: 0,0,0
Cc1n[nH]cc1-c1cc2nc([C@@H]3CC4CCN3CC4)[nH]c(=O)c2s1 [Simurosertib] (2.5 µM),inactive: 0,inactive: 0,inactive: 0,inactive: 0,inactive: 0,inactive: 0,inactive: 0,inactive: 0,0,0
COc1ccc2c(c1OC)C(OC)N(C)c1c-2ccc2cc3c(cc12)OCO3 (stereo not given) [Angoline] (10 µM),inactive: 0,inactive: 0,inactive: 0,inactive: 0,inactive: 0,inactive: 0,inactive: 0,inactive: 0,0,0
Cc1ccccc1-n1c(Cn2ncc3c(N)ncnc32)nc2cccc(C)c2c1=O (10 µM),inactive: 0,inactive: 0,inactive: 0,inactive: 0,inactive: 0,inactive: 0,inactive: 0,inactive: 0,0,0
C[S+]([O-])/C=C/CCN=C=S (stereo not given) [Sulforaphene] (10 µM),inactive: 0,inactive: 0,inactive: 0,inactive: 0,inactive: 0,inactive: 0,inactive: 0,inactive: 0,0,0
C/C(O)=C(\C#N)C(=O)Nc1cc(Br)ccc1Br (10 µM),inactive: 0,inactive: 0,inactive: 0,inactive: 0,inactive: 0,inactive: 0,inactive: 0,inactive: 0,0,0
O=c1cc(O)c2ccccc2o1 [4-Hydroxycoumarin] (10 µM),inactive: 0,inactive: 0,inactive: 0,inactive: 0,inactive: 0,inactive: 0,inactive: 0,inactive: 0,0,0
C[C@H](CCC(=O)O)C[C@H](C)C[C@H](C)C(=O)/C=C(\O)[C@H](C)C[C@H](C)C/C=C/[C@@H](C)[C@@H](O)[C@@H](C)[C@@H](O)C[C@@H]1CC[C@@](C)([C@H]2CC[C@@](C)([C@@H](C)O)O2)O1 [Ionomycin (calcium)] (2.5 µM),active: 1,inactive: 0,inactive: 0,inactive: 0,inactive: 0,inactive: 0,inactive: 0,inactive: 0,0,0
O=C1C=CC[C@@H]2[C@H]3CCCN4CCC[C@@H](CN12)[C@@H]34 [Sophocarpine (monohydrate)] (2.5 µM),inactive: 0,inactive: 0,inactive: 0,active: 1,inactive: 0,inactive: 0,inactive: 0,inactive: 0,0,0
C/C=C(/C)C(=O)O[C@H]1[C@@H]2[C@H](C)C(=O)O[C@@H]2C[C@@H](C)[C@@H]2C=CC(=O)[C@]21C [Brevilin A] (2.5 µM),inactive: 0,inactive: 0,inactive: 0,inactive: 0,inactive: 0,inactive: 0,inactive: 0,inactive: 0,0,0
C[C@H]1CC[C@]2(NC1)O[C@H]1C[C@H]3[C@@H]4CC[C@H]5C[C@@H](O[C@@H]6O[C@H](CO)[C@H](O[C@@H]7O[C@H](CO)[C@@H](O)[C@H](O[C@@H]8OC[C@@H](O)[C@H](O)[C@H]8O)[C@H]7O[C@@H]7O[C@H](CO)[C@@H](O)[C@H](O)[C@H]7O)[C@H](O)[C@H]6O)CC[C@]5(C)[C@H]4CC[C@]3(C)[C@H]1[C@@H]2C [Tomatine] (2.5 µM),inactive: 0,inactive: 0,inactive: 0,inactive: 0,inactive: 0,inactive: 0,inactive: 0,inactive: 0,3,0
C[C@H](Nc1ncnc2[nH]cnc12)c1nc2ccc(F)cc2c(=O)n1-c1ccccc1 [Acalisib] (10 µM),inactive: 0,inactive: 0,inactive: 0,inactive: 0,inactive: 0,inactive: 0,inactive: 0,inactive: 0,0,0
CC(=O)c1c(O)c(C)c(O)c(Cc2c(O)c3c(c(C(=O)/C=C/c4ccccc4)c2O)OC(C)(C)C=C3)c1O [Rottlerin] (2 µM),inactive: 0,inactive: 0,inactive: 0,inactive: 0,inactive: 0,inactive: 0,inactive: 0,inactive: 0,1,0
Cc1ccccc1-n1c(Cn2cnc3c(N)ncnc32)nc2cccc(C)c2c1=O (10 µM),inactive: 0,inactive: 0,inactive: 0,inactive: 0,inactive: 0,inactive: 0,inactive: 0,inactive: 0,0,0
COc1ccc(N(C(=O)Oc2c(C)cccc2C)c2ccnc(Nc3ccc(N4CCN(C)CC4)cc3)n2)c(OC)c1 (2.5 µM),inactive: 0,inactive: 0,inactive: 0,inactive: 0,inactive: 0,inactive: 0,inactive: 0,inactive: 0,0,0
O=C1C=CC[C@@H]2[C@H]3CCCN4CCC[C@@H](CN12)[C@@H]34 [Sophocarpine] (10 µM),inactive: 0,inactive: 0,inactive: 0,inactive: 0,inactive: 0,inactive: 0,inactive: 0,inactive: 0,0,0
CCCCNc1nc(N)c2[nH]c(=O)n(Cc3ccc(C)nc3)c2n1 (10 µM),inactive: 0,inactive: 0,inactive: 0,inactive: 0,inactive: 0,inactive: 0,inactive: 0,inactive: 0,0,0
Nc1ncnc2c1ncn2[C@@H]1O[C@@H]2COP(O)(=S)O[C@H]2[C@H]1O (stereo not given in full) [Sp-cAMPS (sodium salt)] (10 µM),inactive: 0,inactive: 0,inactive: 0,inactive: 0,inactive: 0,inactive: 0,inactive: 0,inactive: 0,0,0
N#CC(C#N)=Cc1ccc([N+](=O)[O-])c(O)c1 (10 µM),inactive: 0,inactive: 0,inactive: 0,inactive: 0,inactive: 0,inactive: 0,inactive: 0,inactive: 0,0,0
O=Cc1cn(Cc2ccc(Cl)cc2)c2ccccc12 [Oncrasin-1] (10 µM),inactive: 0,inactive: 0,inactive: 0,inactive: 0,inactive: 0,inactive: 0,inactive: 0,inactive: 0,0,0
O=c1ccc2cc(O[C@@H]3O[C@H](CO)[C@@H](O)[C@H](O)[C@H]3O)c(O)cc2o1 [Esculin] (10 µM),inactive: 0,inactive: 0,inactive: 0,inactive: 0,inactive: 0,inactive: 0,inactive: 0,inactive: 0,0,0
O=c1[nH]c2ccccc2n1C1CCN(Cc2ccc(-c3[nH]c4cc5ncnc5cc4nc3-c3ccccc3)cc2)CC1 [AKT inhibitor VIII] (2.5 µM),inactive: 0,inactive: 0,inactive: 0,inactive: 0,inactive: 0,inactive: 0,inactive: 0,inactive: 0,0,0
C=C[C@H]1CN2CC[C@]3(C(=O)Nc4ccccc43)[C@@H]2C[C@@H]1/C(=C\OC)C(=O)OC [Corynoxeine] (2 µM),inactive: 0,inactive: 0,inactive: 0,inactive: 0,inactive: 0,inactive: 0,inactive: 0,inactive: 0,0,0
CC(C)(C)c1cc(C=C(C#N)C#N)cc(Br)c1O (2.5 µM),inactive: 0,inactive: 0,inactive: 0,inactive: 0,inactive: 0,inactive: 0,inactive: 0,inactive: 0,0,0
O=C(O)c1nn(Cc2ccc(Cl)cc2Cl)c2ccccc12 [Lonidamine] (10 µM),inactive: 0,inactive: 0,inactive: 0,inactive: 0,inactive: 0,inactive: 0,inactive: 0,inactive: 0,0,0
CC(C)=CC[C@@H](OC(=O)CC(C)(C)O)C1=CC(=O)c2c(O)ccc(O)c2C1=O [β-Hydroxyisovalerylshikonin] (2.5 µM),inactive: 0,inactive: 0,inactive: 0,inactive: 0,inactive: 0,inactive: 0,inactive: 0,inactive: 0,0,0

# Part of the list above, reformatted:
SMILES | kinase-Nluc reporter destabilization hit call (STK38) | kinase-Nluc reporter destabilization hit call (SYK) | kinase-Nluc reporter destabilization hit call (TEC) | kinase-Nluc reporter destabilization hit call (TYK2) | kinase-Nluc reporter destabilization hit call (ULK3) | kinase-Nluc reporter destabilization hit call (YES1) | kinase-Nluc reporter destabilization hit call (ZAK) | kinase-Nluc reporter destabilization hit call (ZAP70) | number of time points (ABL1) | number of time points (AKT1)
COc1ccc2c(c1)/C(=C/c1cnc[nH]1)C(=O)N2 (2.5 µM) | inactive: 0 | inactive: 0 | inactive: 0 | inactive: 0 | inactive: 0 | inactive: 0 | inactive: 0 | inactive: 0 | 0 | 0
C[C@H](Nc1ncnc2[nH]cnc12)c1nc2ccc(F)cc2c(=O)n1-c1ccccc1 [Acalisib] (10 µM) | inactive: 0 | inactive: 0 | inactive: 0 | inactive: 0 | inactive: 0 | inactive: 0 | inactive: 0 | inactive: 0 | 0 | 0
